# The list shows a part of the results. Most of these values are background signal.
# Legend:
# Assay in all cases: fluorescence intensity of antibody binding to polysaccharide-coupled beads; higher = stronger binding
# [1] = target: pneumococcal polysaccharide Pn2
# [2] = target: pneumococcal polysaccharide Pn20A
# [3] = target: pneumococcal polysaccharide Pn20B
# [4] = target: pneumococcal polysaccharide Pn21
# [5] = target: pneumococcal polysaccharide Pn22A
# [6] = target: pneumococcal polysaccharide Pn22F
# [7] = target: pneumococcal polysaccharide Pn23A
# [8] = target: pneumococcal polysaccharide Pn23B
# [9] = target: pneumococcal polysaccharide Pn23F
# [10] = target: pneumococcal polysaccharide Pn24A
# [11] = target: pneumococcal polysaccharide Pn24B
# [12] = target: pneumococcal polysaccharide Pn24F
# [13] = target: pneumococcal polysaccharide Pn25A
# [14] = target: pneumococcal polysaccharide Pn25F
# [15] = target: pneumococcal polysaccharide Pn27
# [16] = target: pneumococcal polysaccharide Pn28A
# [17] = target: pneumococcal polysaccharide Pn28F
# [18] = target: pneumococcal polysaccharide Pn29
# [19] = target: pneumococcal polysaccharide Pn3
# [20] = target: pneumococcal polysaccharide Pn31
# [21] = target: pneumococcal polysaccharide Pn32A
# [22] = target: pneumococcal polysaccharide Pn32F
# [23] = target: pneumococcal polysaccharide Pn33A
# [24] = target: pneumococcal polysaccharide Pn33B
# [25] = antibody concentration 2337.65 ng/mL
# [26] = antibody concentration 12500 ng/mL
# [27] = antibody concentration 0.1 ng/mL
# [28] = antibody concentration 0.534724 ng/mL
# [29] = antibody concentration 2.8593 ng/mL
# [30] = antibody concentration 15.2894 ng/mL
# [31] = antibody concentration 81.7561 ng/mL
# [32] = antibody concentration 437.17 ng/mL
binder,measurement,setting,value
4-80.3 (protein) chain 1: QVQLQESGPGLVKPSETLSLTCAVSGGSFSSYWWSWIRQPPGKGLEWIGEINGNSGSTNYNPSLKSRVTISKDASKNQFSLKLSSVTAADTAVYYCARYKNVWGRGVLVTVSS chain 2: DVVMTQSPLSLPITPGQPASISCRSSQSLVHSNGNTYLSWYQQKPGQPPRRLIYQVSNRDSGVPDRFSGSGAGTDFTLKISRVEAEDVGVYYCGQGTNVPTFGQGTKVEIK,fluorescence intensity,[1]; [25],27.5 MFI
same,fluorescence intensity,[1]; [26],58 MFI
same,fluorescence intensity,[2]; [27],25.5 MFI
same,fluorescence intensity,[2]; [28],22.5 MFI
same,fluorescence intensity,[2]; [29],23 MFI
same,fluorescence intensity,[2]; [30],22.5 MFI
same,fluorescence intensity,[2]; [31],23 MFI
same,fluorescence intensity,[2]; [32],27 MFI
same,fluorescence intensity,[2]; [25],81 MFI
same,fluorescence intensity,[2]; [26],539 MFI
same,fluorescence intensity,[3]; [27],24.8 MFI
same,fluorescence intensity,[3]; [28],25 MFI
same,fluorescence intensity,[3]; [29],23 MFI
same,fluorescence intensity,[3]; [30],24.5 MFI
same,fluorescence intensity,[3]; [31],24 MFI
same,fluorescence intensity,[3]; [32],24.5 MFI
same,fluorescence intensity,[3]; [25],32.5 MFI
same,fluorescence intensity,[3]; [26],104 MFI
same,fluorescence intensity,[4]; [27],18 MFI
same,fluorescence intensity,[4]; [28],19 MFI
same,fluorescence intensity,[4]; [29],20 MFI
same,fluorescence intensity,[4]; [30],19 MFI
same,fluorescence intensity,[4]; [31],20 MFI
same,fluorescence intensity,[4]; [32],19.5 MFI
same,fluorescence intensity,[4]; [25],27.5 MFI
same,fluorescence intensity,[4]; [26],55.5 MFI
same,fluorescence intensity,[5]; [27],23 MFI
same,fluorescence intensity,[5]; [28],22 MFI
same,fluorescence intensity,[5]; [29],22 MFI
same,fluorescence intensity,[5]; [30],18.8 MFI
same,fluorescence intensity,[5]; [31],20 MFI
same,fluorescence intensity,[5]; [32],23.5 MFI
same,fluorescence intensity,[5]; [25],44 MFI
same,fluorescence intensity,[5]; [26],203 MFI
same,fluorescence intensity,[6]; [27],33 MFI
same,fluorescence intensity,[6]; [28],33 MFI
same,fluorescence intensity,[6]; [29],31.8 MFI
same,fluorescence intensity,[6]; [30],31.5 MFI
same,fluorescence intensity,[6]; [31],32.2 MFI
same,fluorescence intensity,[6]; [32],34.5 MFI
same,fluorescence intensity,[6]; [25],46 MFI
same,fluorescence intensity,[6]; [26],88.5 MFI
same,fluorescence intensity,[7]; [27],21.2 MFI
same,fluorescence intensity,[7]; [28],24 MFI
same,fluorescence intensity,[7]; [29],24.5 MFI
same,fluorescence intensity,[7]; [30],27.8 MFI
same,fluorescence intensity,[7]; [31],32.5 MFI
same,fluorescence intensity,[7]; [32],51 MFI
same,fluorescence intensity,[7]; [25],112 MFI
same,fluorescence intensity,[7]; [26],378 MFI
same,fluorescence intensity,[8]; [27],33.5 MFI
same,fluorescence intensity,[8]; [28],30.5 MFI
same,fluorescence intensity,[8]; [29],31 MFI
same,fluorescence intensity,[8]; [30],31.8 MFI
same,fluorescence intensity,[8]; [31],31.2 MFI
same,fluorescence intensity,[8]; [32],36.2 MFI
same,fluorescence intensity,[8]; [25],39.8 MFI
same,fluorescence intensity,[8]; [26],60.8 MFI
same,fluorescence intensity,[9]; [27],17.2 MFI
same,fluorescence intensity,[9]; [28],20 MFI
same,fluorescence intensity,[9]; [29],17.5 MFI
same,fluorescence intensity,[9]; [30],20 MFI
same,fluorescence intensity,[9]; [31],18 MFI
same,fluorescence intensity,[9]; [32],24 MFI
same,fluorescence intensity,[9]; [25],30.5 MFI
same,fluorescence intensity,[9]; [26],82.5 MFI
same,fluorescence intensity,[10]; [27],17 MFI
same,fluorescence intensity,[10]; [28],16 MFI
same,fluorescence intensity,[10]; [29],16.5 MFI
same,fluorescence intensity,[10]; [30],15.5 MFI
same,fluorescence intensity,[10]; [31],15.5 MFI
same,fluorescence intensity,[10]; [32],16.2 MFI
same,fluorescence intensity,[10]; [25],20.5 MFI
same,fluorescence intensity,[10]; [26],48.8 MFI
same,fluorescence intensity,[11]; [27],20.5 MFI
same,fluorescence intensity,[11]; [28],16.2 MFI
same,fluorescence intensity,[11]; [29],17 MFI
same,fluorescence intensity,[11]; [30],18.2 MFI
same,fluorescence intensity,[11]; [31],19 MFI
same,fluorescence intensity,[11]; [32],19.8 MFI
same,fluorescence intensity,[11]; [25],35.5 MFI
same,fluorescence intensity,[11]; [26],116 MFI
same,fluorescence intensity,[12]; [27],15.5 MFI
same,fluorescence intensity,[12]; [28],17.5 MFI
same,fluorescence intensity,[12]; [29],20.5 MFI
same,fluorescence intensity,[12]; [30],17.5 MFI
same,fluorescence intensity,[12]; [31],17.8 MFI
same,fluorescence intensity,[12]; [32],22 MFI
same,fluorescence intensity,[12]; [25],32.2 MFI
same,fluorescence intensity,[12]; [26],84.5 MFI
same,fluorescence intensity,[13]; [27],22.8 MFI
same,fluorescence intensity,[13]; [28],24 MFI
same,fluorescence intensity,[13]; [29],24 MFI
same,fluorescence intensity,[13]; [30],25 MFI
same,fluorescence intensity,[13]; [31],26 MFI
same,fluorescence intensity,[13]; [32],27.5 MFI
same,fluorescence intensity,[13]; [25],37.5 MFI
same,fluorescence intensity,[13]; [26],71.5 MFI
same,fluorescence intensity,[14]; [27],30 MFI
same,fluorescence intensity,[14]; [28],30.2 MFI
same,fluorescence intensity,[14]; [29],32.2 MFI
same,fluorescence intensity,[14]; [30],31 MFI
same,fluorescence intensity,[14]; [31],33 MFI
same,fluorescence intensity,[14]; [32],34.5 MFI
same,fluorescence intensity,[14]; [25],43 MFI
same,fluorescence intensity,[14]; [26],102 MFI
same,fluorescence intensity,[15]; [27],16.8 MFI
same,fluorescence intensity,[15]; [28],16.5 MFI
same,fluorescence intensity,[15]; [29],17.5 MFI
same,fluorescence intensity,[15]; [30],18.5 MFI
same,fluorescence intensity,[15]; [31],18.5 MFI
same,fluorescence intensity,[15]; [32],33.5 MFI
same,fluorescence intensity,[15]; [25],132 MFI
same,fluorescence intensity,[15]; [26],685 MFI
same,fluorescence intensity,[16]; [27],26 MFI
same,fluorescence intensity,[16]; [28],27.2 MFI
same,fluorescence intensity,[16]; [29],28.5 MFI
same,fluorescence intensity,[16]; [30],28.5 MFI
same,fluorescence intensity,[16]; [31],28 MFI
same,fluorescence intensity,[16]; [32],31.5 MFI
same,fluorescence intensity,[16]; [25],36.2 MFI
same,fluorescence intensity,[16]; [26],75 MFI
same,fluorescence intensity,[17]; [27],30 MFI
same,fluorescence intensity,[17]; [28],32 MFI
same,fluorescence intensity,[17]; [29],30 MFI
same,fluorescence intensity,[17]; [30],33.5 MFI
same,fluorescence intensity,[17]; [31],32 MFI
same,fluorescence intensity,[17]; [32],36.2 MFI
same,fluorescence intensity,[17]; [25],73 MFI
same,fluorescence intensity,[17]; [26],318 MFI
same,fluorescence intensity,[18]; [27],14.5 MFI
same,fluorescence intensity,[18]; [28],18.2 MFI
same,fluorescence intensity,[18]; [29],17 MFI
same,fluorescence intensity,[18]; [30],17 MFI
same,fluorescence intensity,[18]; [31],17.5 MFI
same,fluorescence intensity,[18]; [32],24.5 MFI
same,fluorescence intensity,[18]; [25],81.2 MFI
same,fluorescence intensity,[18]; [26],516 MFI
same,fluorescence intensity,[19]; [27],13.8 MFI
same,fluorescence intensity,[19]; [28],14 MFI
same,fluorescence intensity,[19]; [29],14.5 MFI
same,fluorescence intensity,[19]; [30],18 MFI
same,fluorescence intensity,[19]; [31],35.8 MFI
same,fluorescence intensity,[19]; [32],220 MFI
same,fluorescence intensity,[19]; [25],762 MFI
same,fluorescence intensity,[19]; [26],2490 MFI
same,fluorescence intensity,[20]; [27],14 MFI
same,fluorescence intensity,[20]; [28],14.8 MFI
same,fluorescence intensity,[20]; [29],15.5 MFI
same,fluorescence intensity,[20]; [30],15.5 MFI
same,fluorescence intensity,[20]; [31],16 MFI
same,fluorescence intensity,[20]; [32],25 MFI
same,fluorescence intensity,[20]; [25],94 MFI
same,fluorescence intensity,[20]; [26],660 MFI
same,fluorescence intensity,[21]; [27],18.2 MFI
same,fluorescence intensity,[21]; [28],18.8 MFI
same,fluorescence intensity,[21]; [29],18.5 MFI
same,fluorescence intensity,[21]; [30],19 MFI
same,fluorescence intensity,[21]; [31],18 MFI
same,fluorescence intensity,[21]; [32],22.8 MFI
same,fluorescence intensity,[21]; [25],37.8 MFI
same,fluorescence intensity,[21]; [26],138 MFI
same,fluorescence intensity,[22]; [27],26 MFI
same,fluorescence intensity,[22]; [28],28.5 MFI
same,fluorescence intensity,[22]; [29],28.5 MFI
same,fluorescence intensity,[22]; [30],30 MFI
same,fluorescence intensity,[22]; [31],31 MFI
same,fluorescence intensity,[22]; [32],39.5 MFI
same,fluorescence intensity,[22]; [25],60.8 MFI
same,fluorescence intensity,[22]; [26],161 MFI
same,fluorescence intensity,[23]; [27],18 MFI
same,fluorescence intensity,[23]; [28],17.5 MFI
same,fluorescence intensity,[23]; [29],18.5 MFI
same,fluorescence intensity,[23]; [30],16.5 MFI
same,fluorescence intensity,[23]; [31],18.2 MFI
same,fluorescence intensity,[23]; [32],27.8 MFI
same,fluorescence intensity,[23]; [25],214 MFI
same,fluorescence intensity,[23]; [26],1730 MFI
same,fluorescence intensity,[24]; [27],18.5 MFI
same,fluorescence intensity,[24]; [28],18.5 MFI

# 5 neighbouring entries already listed, quoted:
binder,measurement,setting,value
4-80.3 (protein) chain 1: QVQLQESGPGLVKPSETLSLTCAVSGGSFSSYWWSWIRQPPGKGLEWIGEINGNSGSTNYNPSLKSRVTISKDASKNQFSLKLSSVTAADTAVYYCARYKNVWGRGVLVTVSS chain 2: DVVMTQSPLSLPITPGQPASISCRSSQSLVHSNGNTYLSWYQQKPGQPPRRLIYQVSNRDSGVPDRFSGSGAGTDFTLKISRVEAEDVGVYYCGQGTNVPTFGQGTKVEIK,fluorescence intensity,[22]; [26],161 MFI
same,fluorescence intensity,[23]; [27],18 MFI
same,fluorescence intensity,[23]; [28],17.5 MFI
same,fluorescence intensity,[23]; [29],18.5 MFI
same,fluorescence intensity,[23]; [30],16.5 MFI

# Given with tabs: part of the list above.
binder	measurement	setting	value
4-80.3 (protein) chain 1: QVQLQESGPGLVKPSETLSLTCAVSGGSFSSYWWSWIRQPPGKGLEWIGEINGNSGSTNYNPSLKSRVTISKDASKNQFSLKLSSVTAADTAVYYCARYKNVWGRGVLVTVSS chain 2: DVVMTQSPLSLPITPGQPASISCRSSQSLVHSNGNTYLSWYQQKPGQPPRRLIYQVSNRDSGVPDRFSGSGAGTDFTLKISRVEAEDVGVYYCGQGTNVPTFGQGTKVEIK	fluorescence intensity	[3]; [25]	32.5 MFI
same	fluorescence intensity	[4]; [29]	20 MFI
same	fluorescence intensity	[7]; [25]	112 MFI
same	fluorescence intensity	[16]; [25]	36.2 MFI
same	fluorescence intensity	[20]; [27]	14 MFI
